# Experimental data taken from patent US8895695B2, “Template-fixed beta-hairpin peptidomimetics with CXCR4 antagonizing activity” (priority 2003, dated 2014).
# Sequences of proteins named here, by UniProt entry; tags and fusion partners are left off.
# UniProt P61073, whole entry: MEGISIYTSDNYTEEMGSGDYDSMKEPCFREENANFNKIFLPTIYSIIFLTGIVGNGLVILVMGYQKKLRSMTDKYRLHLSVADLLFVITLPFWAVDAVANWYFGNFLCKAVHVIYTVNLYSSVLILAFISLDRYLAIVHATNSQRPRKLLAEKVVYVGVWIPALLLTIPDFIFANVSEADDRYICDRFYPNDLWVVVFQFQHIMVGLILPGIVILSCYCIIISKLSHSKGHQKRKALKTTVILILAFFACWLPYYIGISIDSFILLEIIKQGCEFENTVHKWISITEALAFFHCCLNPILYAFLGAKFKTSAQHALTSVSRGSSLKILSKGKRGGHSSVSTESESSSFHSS
# Biological target: CXCR4 (Homo sapiens, UniProt P61073)
# Experiment: Ca2+-assay method 1: CXCR4-antagonizing activity
# Type: cell-based
# Design: expressed in transfected cells
# Method: 2.2. Ca^2+-Assay: CXCR4-Antagonizing Activity of the Peptides.
# The cells were washed free from Fura-2-AM with a platelet centrifuge and resuspended in 800 μl MSB containing 5 mM D-Glucose. The peptides to be administered were diluted to a 100 fold end concentration in MSB/0.2% PPL, and 8 μl were injected. […] Measurements were done under continuous stirring at 37° C. The signal intension was calibrated with 3 mM CaCl2/[…] lonomycin (maximal fura-2-acetoxymethylester saturation) and 10 μM MnCl2 (minimal Fura-2-acetoxymethylester saturation) and [Ca^2+]i-changes are presented in % fora-2-acetoxymethylester saturation. The rate of [Ca^2+]i-changes was calculated on the basis of the initial [Ca^2+]i-changes and plotted in dependence of chemokine concentration to obtain a sigmoidal curve and to determine the IC50 values.
# Osmolarity: 310 mOsm adjusted with NaOH or HCl, adjusted with H2O or PBS.
# MSB plus: 5 mM D-glucose in MSB (50 mg/50 mL).
# Fura 2-acetoxymethylester: 1 mM stock solution in dimethylsulfoxide.
compound,measurement,value
N=C(N)NCCC[C@@H]1NC(=O)[C@@H]2CSSC[C@H](NC(=O)[C@H](Cc3ccc4ccccc4c3)NC(=O)[C@H](CCCNC(=N)N)NC(=O)[C@H](CCCNC(=N)N)NC(=O)[C@H]3CCCN3C(=O)CNC1=O)C(=O)N[C@@H](Cc1ccc(O)cc1)C(=O)N[C@@H](CCCNC(N)=O)C(=O)N[C@@H](CCCCN)C(=O)N1CCC[C@@H]1C(=O)N1CCC[C@H]1C(=O)N[C@@H](Cc1ccc(O)cc1)C(=O)N[C@@H](CCCNC(=N)N)C(=O)N[C@@H](CCCNC(N)=O)C(=O)N2 [Ex. 51],IC50,1.9 nM
